# Values from PubChem BioAssay AID1259254 (NCATS, 2017)
# Screen: 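Finding genes that stop cells copying their DNA twice in one cycle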 (primary screen)
# Cell system: human HCT116 colorectal cancer cells
# Reagents: single siRNA against human genes
# Duration: 3 days
# Read-out: 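Imaged Hoechst DNA stain sorts each cell into a cycle phase by DNA amount; per plate, G2 fraction set to 0% for non-targeting and 100% for GMNN siRNA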
# Direction: G2 robust z-score and G2 cells, % of GMNN control: higher = more G2 cells, more excess DNA replication; raw share of cells in G2: higher = larger share of cells with G2 DNA content
# Hit rule: 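Active siRNAs have a G2 robust z of 5 or more median absolute deviations over the median, which in these data means about 38% or higher of GMNN control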
# This is a random part of about 59,000 deposited reagents. Of all reagents, about 1,550 (2.6%) got an active call. 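G2 share is only a proxy for re-replication; each gene was hit by three separate siRNAs, and active genes were retested.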 The raw values are shown without normalisation. The numbers tell different reagents against one gene apart. The record does not give: the amount of reagent.
gene,siRNA no.,G2 robust z-score,"G2 cells, % of GMNN control",raw share of cells in G2 (%),Call
GUSB (GeneID 2990),1,1.12,10.8,9.81,inactive
GUSB (GeneID 2990),2,-0.0964,2.29,5.04,inactive
GUSB (GeneID 2990),3,-0.999,-4.06,3.57,inactive
PCF11 (GeneID 51585),1,0.173,4.19,5.1,inactive
PCF11 (GeneID 51585),2,4.81,36.8,19.8,inactive
PCF11 (GeneID 51585),3,3.57,28.1,12.5,inactive
TBC1D12 (GeneID 23232),1,1.41,12.9,10,inactive
TBC1D12 (GeneID 23232),2,0.259,4.79,6.11,inactive
TBC1D12 (GeneID 23232),3,0.159,4.09,4.7,inactive
WFDC11 (GeneID 259239),1,-0.602,-1.27,3.18,inactive
WFDC11 (GeneID 259239),2,1.38,12.7,7.96,inactive
WFDC11 (GeneID 259239),3,0.668,7.67,5.6,inactive
LGALS9 (GeneID 3965),1,0.176,4.2,4.87,inactive
LGALS9 (GeneID 3965),2,0.339,5.35,7.25,inactive
LGALS9 (GeneID 3965),3,-0.167,1.8,4.93,inactive
NSUN5P2 (GeneID 260294),1,-0.637,-1.51,4.15,inactive
NSUN5P2 (GeneID 260294),2,1.37,12.6,12,inactive
NSUN5P2 (GeneID 260294),3,-0.847,-2.99,3.44,inactive
ESRP1 (GeneID 54845),1,-0.642,-1.55,3.05,inactive
ESRP1 (GeneID 54845),2,-0.995,-4.03,2.57,inactive
ESRP1 (GeneID 54845),3,3.01,24.1,11.2,inactive
KDM7A (GeneID 80853),1,-0.621,-1.4,3.86,inactive
KDM7A (GeneID 80853),2,2.14,18,12.2,inactive
KDM7A (GeneID 80853),3,-0.502,-0.564,2.22,inactive
FBXO45 (GeneID 200933),1,5.76,43.5,23,active
FBXO45 (GeneID 200933),2,5.53,41.9,20,active
FBXO45 (GeneID 200933),3,0.575,7.01,9.3,inactive
EXO5 (GeneID 64789),1,-0.802,-2.68,3.41,inactive
EXO5 (GeneID 64789),2,0.109,3.74,6.28,inactive
EXO5 (GeneID 64789),3,-0.229,1.35,3.05,inactive
LOC643496 (retired record) (GeneID 643496),1,-0.25,1.21,3.5,inactive
LOC643496 (retired record) (GeneID 643496),2,-0.716,-2.07,2.85,inactive
LOC643496 (retired record) (GeneID 643496),3,-0.0342,2.73,4.25,inactive
P2RX2 (GeneID 22953),1,-0.496,-0.519,4.17,inactive
P2RX2 (GeneID 22953),2,2.22,18.6,12,inactive
P2RX2 (GeneID 22953),3,0.333,5.31,6.58,inactive
LOC727916 (retired record) (GeneID 727916),1,0.332,5.31,5.56,inactive
LOC727916 (retired record) (GeneID 727916),2,0.199,4.37,4.41,inactive
LOC727916 (retired record) (GeneID 727916),3,0.6,7.19,6.32,inactive
SH3BP4 (GeneID 23677),1,0.589,7.11,7.8,inactive
SH3BP4 (GeneID 23677),2,0.401,5.79,7.3,inactive
SH3BP4 (GeneID 23677),3,-0.506,-0.592,3.49,inactive
BRINP3 (GeneID 339479),1,-0.61,-1.33,3.53,inactive
BRINP3 (GeneID 339479),2,-0.266,1.09,3.74,inactive
BRINP3 (GeneID 339479),3,-0.0975,2.28,5.11,inactive
CLEC2L (GeneID 154790),1,-0.776,-2.49,1.97,inactive
CLEC2L (GeneID 154790),2,-0.266,1.1,4,inactive
CLEC2L (GeneID 154790),3,-0.191,1.63,3.5,inactive

Part of the list above, limited to “raw share of cells in G2 (%)”.
BRINP3 (GeneID 339479) #2: 3.74
BRINP3 (GeneID 339479) #3: 5.11
CLEC2L (GeneID 154790) #1: 1.97
